# Measured values reported in patent US4061779A, “Naphthalene derivatives having anti-inflammatory activity” (Beecham Group Limited, priority 1973, dated 1977).
# How the values were obtained:
# rat stomach = conditions: 300 mg/kg/day orally, end of 11/2 days
# [1] = some subjects, doses not greatly in excess of therapeutic dose; cited from earlier work
structure (smiles),measurement,setting,value
COc1ccc2cc(C(C)C(=O)O)ccc2c1 (centres unmarked) [compound of formula (I)],gastric irritation,rat stomach,very severe gastric irritation
same,irritation of the gastro-intestinal tract,[1],can cause severe irritation of the gastro-intestinal tract
